Source: patent US8927728B2, “Dipeptide acetylene conjugates and a method for photocleavage of double strand DNA by dipeptide acetylene conjugates” (The Florida State University Research Foundation, Inc., priority 2011, dated 2015)

Experiments:
[1] = Fluorescence quenching by triethylamine (Stern-Volmer); type: physicochemical; details: Et3N as a quencher
Procedure: The fluorescence quenching by triethylamine (Et3N) was tested in order to gauge relative efficiencies of these compounds as DNA photo-oxidizers. […] The measured singlet lifetimes allowed us to determine the quenching rate constant, kq, which in this system, should be very close in magnitude to the rate of electron transfer, kET. The 2-3-fold increase in the rate of electron transfer from Et3N to excited singlet state of the meta- and ortho-isomers in comparison to the para-isomer is consistent with the well-known photochemical ortho, meta effect of an acceptor substituent. See Zimmerman, H. E., The Meta Effect in Organic Photochemistry: Mechanistic and Exploratory Organic Photochemistry, J. Am. Chem. Soc., 1995, 117, 8988-8991. doi: 10.1021/ja00140a014 and Zimmerman, H. E.; Alabugin, I. V. J. Am. Chem. Soc. 2001, […]. doi: 10.1021/ja002402c.

[2] = Singlet excitation lifetime (TCSPC); type: physicochemical; details: excited at 295 nm

| Compound | Ksv (Stern-Volmer quenching constant) [1] [M⁻¹] | Ksv (Stern-Volmer quenching constant) ([1]; listed as meta isomer (4)) [M⁻¹] | τ (singlet lifetime) [2] |
| --- | --- | --- | --- |
| CC(=O)Nc1cccc(C#Cc2c(F)c(F)nc(F)c2F)c1 [(4) (meta), N-(3-((Perfluoropyridin-4-yl)ethynyl)phenyl)acetamide] | 45.5 | 45.51 | 3.35 ± 9.30 × 10^−3 ns |
| CC(=O)Nc1ccccc1C#Cc1c(F)c(F)nc(F)c1F [(5) (ortho), N-(2-((Perfluoropyridin-4-yl)ethynyl)phenyl) acetamide] | 19.1 |  | 1.34 ± 3.52 × 10^−3 ns |
| CC(=O)Nc1ccc(C#Cc2c(F)c(F)nc(F)c2F)cc1 [(3) (para), N-(4-((Perfluoropyridin-4-yl)ethynyl)phenyl)acetamide] | 7.11 |  | 1.26 ± 3.22 × 10^−3 ns |
